Source: article PMC10618370, “Mur ligase F as a new target for the flavonoids quercitrin, myricetin, and (–)-epicatechin” (Journal of Computer-Aided Molecular Design, 2023)
Some compounds share one wording; it may come from a single statement.

Assay: Assay interference screen (malachite green-based assay)
Conditions: 100 µM compound, absorbance at 650 nm

SMILES	Interference with the malachite green assay (in words)
O=c1c(OC2OC(CO)C(O)C(O)C2O)c(-c2ccc(O)c(O)c2)oc2cc(O)cc(O)c12 (stereo not drawn) [Compound 9]	increased the absorbance at 650 nm
O=c1c(O)c(-c2ccc(O)c(O)c2)oc2cc(O)cc(O)c12 [Compound 14, Quercetin]	interacted with the assay
COc1cc(OC)c2c(=O)cc(-c3ccc(OC)c(OC)c3)oc2c1 [Compound 19]	increased the absorbance at 650 nm
